Laboratory results published in paper PMC10163288.
This is one part of the list.

B1: il2ra_site1_1z92_sap_10_mot_HHH_b2_05238_af2_000000252_0001_38_55_H_._HHH_b2_04717_0001_0000100008_0000001_0_0001_af2pred_0001_af2pred_1 (protein)
chain: SSSSDRHLKRSLKIAVEAAVKTAGLSEEQEEELRELAEELAERGVDFLEALQIVLEVAAELSSSS
B2: il2ra_site2_2erj_normal_mot_HHH_b1_04777_000000131_0001_1_19_H_._HHH_b2_05509_0001_0000100009_0000001_0 (protein)
chain: SSSSSDELEEFVEELIKEFNLSELAKFYLERWARISKELGLSEEQIKKALEQAAEADRRSSSSSS
B3: il2ra_site2_2erj_normal_mot_HHH_b2_01204_af2_000000056_0001_19_34_H_._HHH_b2_03231_af2_0001_0000300024_0000001_1 (protein)
chain: SSSSSELEERVRELLEEAREAYEEGDLEEVYRLAVEALHLVSENNDQELQEEIAEFLEELSSSSS
B4: il2ra_site2_3nfp_sap_15_mot_HHH_b2_02049_000000004_0001_42_55_H_._HHH_b2_01829_0001_0000100025_0000001_0_0001 (protein)
chain: SSSSDEEHERLWELAKEAFELLEEGNPEEAEEVLEEARELAERLDDEVALRAIEELRKLLNSSSS
B5: il2ra_site2_3nfp_sap_15_mot_HHH_b1_07089_af2_000000257_0001_1_17_H_._51cc31007119fa75359d0ea3f4aa2c22_0001_1_0001_0000100009_0000001_0_0001 (protein)
chain: SSSSSAAEDSVHVLKRELEELGDRESIEELERLLEEIKEHNDPRLLLELYALLLRLYEESSSSSS
B6: il2ra_site2_2erj_normal_mot_HHH_b1_04514_af2_000000117_0001_22_39_H_._HHH_b1_05426_0001_0000600015_0000001_0 (protein)
chain: SSSSTAEESVEELARLLRELREEGDPDQVRALAELAERYFERQGDEEAVELLREVLERLLSSSSS
B7: il2ra_site1_2b5i_normal_mot_3116615af0ee64d731c1c85d8523bf51_0001_000000216_0001_15_32_H_._HHH_b1_06770_af2_0001_0000200020_0000001_0_af2pred_dldesign_0_af2pred (protein)
chain: SSSSSDIEAKTEAALAKARELYEAGKRREALELLEKLYKELSALGREDLQDRVYKLALELSSSSS
B8: il2ra_site1_2b5i_normal_mot_HHH_b1_02271_000000068_0001_1_16_H_._HHH_b1_08334_0001_0000300016_0000001_0_af2pred_dldesign_0_af2pred (protein)
chain: SSSSSSRREKLLRIEELLKEAAKLEDLEEREKLLDEALELAKEAKDPFAVKAVEEAREELSSSSS
B9: il2ra_site1_3nfp_sap_10_mot_1dfc56a8f07a39e834a69883c800ee5d_0001_1_af2_000000099_0001_1_15_H_._HEEHE_0460_0001_0000300003_0000001_1_0001 (protein)
chain: SSSSDREEAIKVAEKILRAAWEGDREEARELLEELKEIAEKSNDPRLERLTEKLEKAIEWSSSSS
B10: il2ra_site1_3nfp_normal_mot_HHH_b2_03678_af2_000000278_0001_41_55_H_._31bff7180b20e3ed47766ceefd9934be_0001_af2_0001_0000300034_0000001_0_af2pred_0001_af2pred (protein)
chain: DEEKELAELIKKAVEKNDPELLEEVLRELLEELGNPREAAKLFHELLKKAGLDPREILEALRLVT
B11: il2ra_site1_2b5i_sap_11_mot_HHH_b1_06833_000000178_0001_1_19_H_._HHH_b1_07977_0001_0000700012_0000001_0_0001_af2pred_dldesign_0_af2pred (protein)
chain: SSSSSSAAKEARRLFLEANRLFQAGKEEEAKEALEKALELAKKAKANSLLRLVENALKLLSSSSS
B12: il2ra_site1_3nfp_normal_mot_7cbdf275c6f204f9d60ac8802deb44b6_0001_1_000000034_0001_19_33_H_._HHH_b1_00879_0001_0000300012_0000001_0 (protein)
chain: SSSSTADEFLEELVKEAFEEGDRLQLRALIKLLEHALKALGDPTAKELLEEAQELLERLRSSSSS
B13: il2ra_site2_2erj_sap_16_mot_HHH_b2_05639_000000107_0001_40_54_H_._HHH_b1_02005_0001_0000100002_0000001_0_0001_af2pred_0001_af2pred (protein)
chain: SSSSDERELAELLARISRAAAEGDEEEVRELVEELRKLAEELNDEEAERAVEVLEEHLRGSSSSS
B14: il2ra_site2_2erj_normal_mot_HHH_b1_02466_000000018_0001_22_38_H_._HHH_b1_07558_0001_0000100002_0000001_0 (protein)
chain: SSSSSEVEQLAEAVLEVAEANNDEELVRRLEELLEQLEEEGDHRYAWEMLELLLELRERLSSSSS
B15: il2ra_site1_3nfp_sap_16_mot_HHH_b1_04049_af2_000000244_0001_42_55_H_._HHH_b2_06744_0001_0000100003_0000001_0_0001_af2pred_0001_af2pred_swapped (protein)
chain: SLEERIEEILKKYLPPVEVRVLIRMVKEVVEKHNIPPEEAIKLLIEAMRRNDERLAEILEEALEE
B16: il2ra_site2_2erj_sap_24_mot_720936397f2d31669eff21710c18a4fc_0001_000000071_0001_37_51_H_._HHH_b2_07963_af2_0001_0000200006_0000001_0_0001 (protein)
chain: SSSSDEEERVIELLAQAVELANNGNPEEARKAIEEAEEIARELGDEFLERYIEFALRDIESSSSS
B17: il2ra_site1_2b5i_sap_13_mot_HHH_b1_06900_af2_000000048_0001_21_36_H_._d91d1db0bf1296298019f2f5d1450a22_0001_1_0001_0000300013_0000001_0_0001_af2pred_dldesign_0_ … (protein)
chain: SSSSSDKRKFASDLVDELTEKYGLDAEQENALIRLATELIWQGLSPEEIRERLEALAERLSSSSS
B18: il2ra_site2_2erj_sap_31_mot_13e88f01115c899cb62c0719bb565eb2_0001_000000092_0001_36_50_H_._a6dc95095f26d3d149f38d2607f81e7c_0001_0001_0000900026_0000001_0_0001_ … (protein)
chain: SSSSDEEELERLLREIEEAVERGDEELYARLVRELFRLIRELGDEEAASLLIRLAEEFAEGSSSS
B19: il2ra_site1_1z92_normal_mot_1581cc1c700002558836ca695aafbf97_0001_1_af2_000000099_0001_17_32_H_._393f259bee1ff5c7c1c94a75254b9d8d_0001_0001_0000300037_0000001_1 (protein)
chain: DVERFIEFLERKGRVSPEQIAKSLAAFVRLAERKSPEAAEAFERDLEELSKTDPIAELALELLRR

Each binder was assayed against il2ra, P01589 (assay: yeast display titration).

Apparent Kd, inactive:
B1 no binding seen
B2 no binding seen
B3 no binding seen
B4 no binding seen
B5 no binding seen
B6 no binding seen
B7 no binding seen
B8 no binding seen
B9 no binding seen
B10 no binding seen
B11 no binding seen
B12 no binding seen
B13 no binding seen
B14 no binding seen
B15 no binding seen
B16 no binding seen
B17 no binding seen
B18 no binding seen
B19 no binding seen

2 neighbouring records from above, for reference:
Apparent Kd, inactive:
B15 no binding seen
B16 no binding seen
